Substitutions are numbered along the chain they refer to. For some assays here: The comparison behind a weaker result is the experiment's own reference, which may not be listed here. Protein sequences can lack the tags named with them. For some assays here: The exact form of at least one protein or probe is not confirmed. For some assays here: At least one verdict rests on a figure or table, not on a statement of the authors.
How the values were obtained:
Assay in all cases: MST
[1] = biological target: T1, DinG R673A (Escherichia coli) (UniProt P27296); conditions: MST: 25 mM Tris pH 8.0, 200 mM NaCl, 1 mM DTT, 5% glycerol, 25 C, 10 nM ssDNA; recombinant protein; residues 1-716; protein details: His6-MBP-TEV N-terminal, removed by TEV; label: 5' FAM; single-stranded DNA
T1 sequence (looked up): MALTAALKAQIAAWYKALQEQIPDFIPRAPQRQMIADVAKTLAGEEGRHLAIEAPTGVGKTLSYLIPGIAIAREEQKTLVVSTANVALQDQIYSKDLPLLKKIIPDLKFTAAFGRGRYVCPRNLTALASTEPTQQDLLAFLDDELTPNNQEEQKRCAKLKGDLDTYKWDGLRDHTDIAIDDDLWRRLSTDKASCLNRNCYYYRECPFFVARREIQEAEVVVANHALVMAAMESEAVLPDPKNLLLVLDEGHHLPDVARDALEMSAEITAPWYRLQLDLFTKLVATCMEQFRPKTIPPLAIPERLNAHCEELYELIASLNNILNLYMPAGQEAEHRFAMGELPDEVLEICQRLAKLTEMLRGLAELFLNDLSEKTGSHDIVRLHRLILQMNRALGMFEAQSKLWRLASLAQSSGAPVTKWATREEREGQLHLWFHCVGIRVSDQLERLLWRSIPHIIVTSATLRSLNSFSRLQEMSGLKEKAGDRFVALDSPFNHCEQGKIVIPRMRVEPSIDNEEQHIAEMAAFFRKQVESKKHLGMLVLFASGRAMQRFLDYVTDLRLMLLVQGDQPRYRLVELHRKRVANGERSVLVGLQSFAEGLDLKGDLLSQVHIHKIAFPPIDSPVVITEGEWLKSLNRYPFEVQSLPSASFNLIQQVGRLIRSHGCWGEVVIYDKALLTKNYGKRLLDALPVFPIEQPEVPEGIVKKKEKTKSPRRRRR

[2] = biological target: T2, DinG F638A (Escherichia coli) (UniProt P27296); conditions: MST: 25 mM Tris pH 8.0, 200 mM NaCl, 1 mM DTT, 5% glycerol, 25 C, 10 nM ssDNA; recombinant protein; residues 1-716; protein details: His6-MBP-TEV N-terminal, removed by TEV; label: 5' FAM; single-stranded DNA
T2 sequence (looked up): T1 sequence (looked up) with F638A, A673R

[3] = biological target: T3, DinG I618A (Escherichia coli) (UniProt P27296); conditions: MST: 25 mM Tris pH 8.0, 200 mM NaCl, 1 mM DTT, 5% glycerol, 25 C, 10 nM ssDNA; recombinant protein; residues 1-716; protein details: His6-MBP-TEV N-terminal, removed by TEV; label: 5' FAM; single-stranded DNA
T3 sequence (looked up): T1 sequence (looked up) with I618A, A673R

[4] = biological target: T4, DinG R117A (Escherichia coli) (UniProt P27296); conditions: minor defect; MST: 25 mM Tris pH 8.0, 200 mM NaCl, 1 mM DTT, 5% glycerol, 25 C, 10 nM ssDNA; recombinant protein; residues 1-716; protein details: His6-MBP-TEV N-terminal, removed by TEV; label: 5' FAM; single-stranded DNA
T4 sequence (looked up): T1 sequence (looked up) with R117A, A673R

[5] = biological target: T5, DinG R211A (Escherichia coli) (UniProt P27296); conditions: minor defect; MST: 25 mM Tris pH 8.0, 200 mM NaCl, 1 mM DTT, 5% glycerol, 25 C, 10 nM ssDNA; recombinant protein; residues 1-716; protein details: His6-MBP-TEV N-terminal, removed by TEV; label: 5' FAM; single-stranded DNA
T5 sequence (looked up): T1 sequence (looked up) with R211A, A673R

DinG (Escherichia coli) = biological target: T6, DinG (Escherichia coli) (UniProt P27296); conditions: MST: 25 mM Tris pH 8.0, 200 mM NaCl, 1 mM DTT, 5% glycerol, 25 C, 10 nM ssDNA; recombinant protein; residues 1-716; protein details: His6-MBP-TEV N-terminal, removed by TEV; label: 5' FAM; single-stranded DNA
T6 sequence (looked up): T1 sequence (looked up) with A673R

[6] = biological target: T7, DinG Y636A (Escherichia coli) (UniProt P27296); conditions: MST: 25 mM Tris pH 8.0, 200 mM NaCl, 1 mM DTT, 5% glycerol, 25 C, 10 nM ssDNA; recombinant protein; residues 1-716; protein details: His6-MBP-TEV N-terminal, removed by TEV; label: 5' FAM; single-stranded DNA
T7 sequence (looked up): T1 sequence (looked up) with Y636A, A673R

[7] = biological target: T8, DinG F615A (Escherichia coli) (UniProt P27296); conditions: MST: 25 mM Tris pH 8.0, 200 mM NaCl, 1 mM DTT, 5% glycerol, 25 C, 10 nM ssDNA; recombinant protein; residues 1-716; protein details: His6-MBP-TEV N-terminal, removed by TEV; label: 5' FAM; single-stranded DNA
T8 sequence (looked up): T1 sequence (looked up) with F615A, A673R

“TTTTTTTTTTTTTT [dT14 (14 base oligo-dT)]”: binds more weakly [1]; binds more weakly [2]; binds more weakly [3]. “TTTTTTTTTTTTTT [dT14 (14 base oligo-dT)]”: binds more weakly [4]; binds more weakly [5]; binds (DinG (Escherichia coli)). “TTTTTTTTTTTTTT [dT14 (14 base oligo-dT)]”: binds more weakly [6]; binds more weakly [7].

Reference: article PMC6300356, “DNA translocation mechanism of an XPD family helicase”
